Source: article PMC11292009, “Mapping protein binding sites by photoreactive fragment pharmacophores” (Communications Chemistry, 2024)
Several values for one entry are separate records, joined by “and”; a condition that tells them apart may be missing. Equal values may be shown once. Further values from the same series stand in other lists.

Experiments:
[1] = test system: T1, Kras G12D protein / SOS1 exchange domain; assay: Kras-SOS exchange assay (MANT-GDP); assay type: biochemical; details: for Relative fluorescence intensity: PhP072 500 uM, no irradiation; for normalized signal, Kras-SOS exchange (Figure 4c PhP072 irradiation): Php072 500 uM
T1 construct: Cytoskeleton, Inc. (SOS1 exchange domain only) GE02
Experimental: MANT-GDP loading assay: Kras^G12D protein was first buffer exchanged into low magnesium buffer (20 mM HEPES-NaOH (pH 7.5), 50 mM NaCl, 0.5 mM MgCl2) using a NAP5 column (catalog no.: 17-0583-1, Cytiva). The proteins were then incubated with 20-fold molar excess of N-methylanthraniloyl (MANT)-GDP (catalog no.: 69244, Sigma-Aldrich) in loading buffer (50 mM NaCl, 20 mM HEPES-NaOH [pH 7.5], 0.5 mM MgCl2, 10 mM EDTA, and 1 mM Dithiothreitol (DTT)) in a total volume of 200 μL at 20 °C for 90 min. The reaction was stopped by adding MgCl2 to a final concentration of 10 mM, then incubated at 20 °C for 30 min. The unbound MANT-GDP was removed using the NAP-5 column equilibrated with nucleotide exchange buffer (40 mM HEPES-NaOH (pH 7.5), 50 mM NaCl, 10 mM MgCl2, 2 mM DTT).
MANT-GDP exchange assay: First the MANT-GDP bound Kras G12D protein (in a final 1 μM molar concentration) was preincubated with the inhibitor molecules for 60 min. After the preincubation the samples were exposed to UV light for 10 min with a wavelength of 366 nm. The UV-treated MANT-GDP Kras-inhibitor mix was loaded into a black 384 well microplate. The nucleotide exchange reaction was initiated by adding 100 fold molar excess of GppNHp (catalog no.: G0635, Sigma-Aldrich), a non-hydrolyzable GTP analog and the SOS1 exchange domain (catalog no.: GE02, Cytoskeleton, Inc.) protein in 0.5 μM final concentration. The change in fluorescence intensity was measured every 30 s in room temperature for 60 min on an EnSpire plate reader (PerkinElmer, Inc.). The measured fluorescence values were fitted to a single exponential function by using GraphPad Prism 8 software.

STAT5B NTD = target: T2, STAT5B NTD (Homo sapiens, UniProt P51692); assay: Microscale thermophoresis (MST), without irradiation; assay type: binding; details: for Fnorm: MST raw data, PhP097 concentration [log
T2 construct: His-SUMO (N, cleaved yes); made in house; host or cells: E. coli BL21 RILP
T2 sequence (P51692 1-123): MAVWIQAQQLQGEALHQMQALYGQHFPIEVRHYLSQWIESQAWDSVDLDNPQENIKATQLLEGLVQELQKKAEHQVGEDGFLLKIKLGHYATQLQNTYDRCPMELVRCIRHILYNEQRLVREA
Experimental: For the microscale thermophoresis (MST) studies, we prepared 16 two-fold serial dilutions of compounds starting from 500 μM. Titration series were prepared that contained 10 μL of compounds’ solutions of varying concentrations and 10 μL RED-NHS 2nd Generation labeled STAT5B NTD with a concentration of 168 nM for compound PhP097, and a concentration of 84 nM for compound PhP065. Final buffer composition included 1X PBS containing 0.5% DMSO. All measurements were taken in Premium Coated Capillaries on a Monolith NT.115 instrument (NanoTemper Technologies, Munich, Germany) using 80% infrared laser power for compound PhP097, 60% infrared laser power for compound PhP065, and an LED excitation source with λ = 650 nm at a temperature of 25 °C. Results were expressed as the mean of two separate experiments, with three technical replicates each. GraphPad Prism 9.5.1 software was used to fit the data and to determine the KD values.

With `Cc1ncc(CO)c(CNC(=O)CCC2(C)N=N2)c1O` [PhP072, Cc1ncc(CO)c(c1O)CNC(=O)CCC2(C)N=N2] the Relative fluorescence intensity ([1]; 150 sec) was 0.9388, the Relative fluorescence intensity ([1]; 180 sec) was 0.9631 and the Relative fluorescence intensity ([1]; 2610 sec) was 0.691. It also gave a Relative fluorescence intensity ([1]; 2640 sec) of 0.7138, a Relative fluorescence intensity ([1]; 2670 sec) of 0.7054 and a Relative fluorescence intensity ([1]; 2700 sec) of 0.71. It also gave a Relative fluorescence intensity ([1]; 2730 sec) of 0.6899, a Relative fluorescence intensity ([1]; 2760 sec) of 0.6818 and a Relative fluorescence intensity ([1]; 2790 sec) of 0.6957. For the same compound, the Relative fluorescence intensity ([1]; 2820 sec) was 0.6756, the Relative fluorescence intensity ([1]; 2850 sec) was 0.7031 and the Relative fluorescence intensity ([1]; 2880 sec) was 0.6673. For the same compound, the “normalized signal, Kras-SOS exchange (Figure 4c PhP072 irradiation)” value (from here on “normalized signal, Kras-SOS exchange”) ([1]; time 150 sec) was 0.9882, the “normalized signal, Kras-SOS exchange” value ([1]; time 180 sec) was 0.9892 and the “normalized signal, Kras-SOS exchange” value ([1]; time 2610 sec) was 0.9202. For the same compound, the “normalized signal, Kras-SOS exchange” value ([1]; time 2640 sec) was 0.9444, the “normalized signal, Kras-SOS exchange” value ([1]; time 2670 sec) was 0.9395 and the “normalized signal, Kras-SOS exchange” value ([1]; time 2700 sec) was 0.935. The “normalized signal, Kras-SOS exchange” value ([1]; time 2730 sec) was 0.9162, the “normalized signal, Kras-SOS exchange” value ([1]; time 2760 sec) was 0.9142 and the “normalized signal, Kras-SOS exchange” value ([1]; time 2790 sec) was 0.921. The “normalized signal, Kras-SOS exchange” value ([1]; time 2820 sec) was 0.916, the “normalized signal, Kras-SOS exchange” value ([1]; time 2850 sec) was 0.9204 and the “normalized signal, Kras-SOS exchange” value ([1]; time 2880 sec) was 0.8998.

For `CC1(CCC(=O)NCCc2csc(-c3ccccc3)n2)N=N1` [PhP097, N1=NC1(C)CCC(=O)NCCc2csc(n2)-c3ccccc3], the ΔFnorm (STAT5B NTD; Fnorm - Unbound value, Php097 concentration [log, µM] -1.5157, runs/replicates) was -0.1751 ‰ and 5.414 ‰, the Fnorm (STAT5B NTD; µM] 1.19382, runs/replicates) was 710.349 ‰ and 709.9 ‰ and 712.145 ‰ and 706.832 ‰ and 707.716 ‰ and 708.776 ‰ and the Fnorm (STAT5B NTD; µM] 1.49485, runs/replicates) was 709.995 ‰ and 707.215 ‰ and 707.437 ‰ and 704.024 ‰ and 708.603 ‰ and 706.942 ‰. The Fnorm (STAT5B NTD; µM] 1.79588, runs/replicates) was 705.853 ‰ and 705.387 ‰ and 706.853 ‰ and 700.507 ‰ and 704.962 ‰ and 701.944 ‰, the Fnorm (STAT5B NTD; µM] 2.09691, runs/replicates) was 699.67 ‰ and 700.13 ‰ and 702.445 ‰ and 701.209 ‰ and 707.631 ‰ and 701.304 ‰ and the Fnorm (STAT5B NTD; µM] 2.39794, runs/replicates) was 712.652 ‰ and 711.955 ‰ and 714.108 ‰ and 701.531 ‰ and 700.302 ‰ and 701.524 ‰.
